Experimental data: patent publication US9155740B2, “Compositions and methods for treatment and prevention of hyperuricemia related health consequences” (priority 2004, dated 2015)

Tests used:
fructose-fed rats = experiment: Prevention of fructose-induced hyperuricemia with allopurinol; format: in vivo, rat; conditions: at 8 weeks; difference not significant
Experimental: […] Three groups (control, Fr, and Fr+AP; n=8 each) were designed for this prevention study. Body weight was measured every 2 weeks. Food consumption was measured for 3 days at 8 weeks.
Measurements: Systolic blood pressure was assessed as the mean value of 3 consecutive measurements obtained in the morning using a tail-cuff sphygmomanometer (Visitech BP2000, Visitech Systems, Inc., Apex, N.C.). All animals were preconditioned for blood pressure measurements 1 wk before each experiment. Serum uric acid was measured by uricase method. Blood glucose was measured with the ONE TOUCH system (Johnson&Johnson, Milpitas, Calif.). Rat insulin was measured by ELISA (Crystal Chem. Inc., Chicago, Ill.). Insulin sensitivity index was calculated using the formula of Matsuda and DeFronzo (10,000/square root of [fasting glucose×fasting insulin]×[mean glucose×mean insulin during OGTT]), which is highly correlated (r=0.73, p<0.0001) with rate of whole-body glucose disposal during the euglycemic insulin clamp (Matsuda M and DeFronzo R A, Insulin sensitivity indices obtained from oral glucose tolerance testing: comparison with the euglycemic insulin clamp, Diabetes Care 22: 1462-1470, 1999). Serum lipids were measured with an autoanalyzer (VETAce, Alfa Wassermann Inc, West Caldwell, N.J.) or Triglyceride-SL assay kit (Diagnostic chemicals Limited, Charlottetown, PE, Canada).
Statistical analysis. […]

[1] = Effect of allopurinol or benzbromarone on body weight and food consumption, control diet; format: in vivo, rat; conditions: vs control diet alone; for Total food consumption at 8 weeks: 150 mg/L drinking water; for final body weight: 8 weeks

O=C(CO)[C@@H](O)[C@H](O)[C@H](O)CO [Fr, fructose]
total food intake over 3 days (fructose-fed rats): 92 ± 2 g

CCc1oc2ccccc2c1C(=O)c1cc(Br)c(O)c(Br)c1 [benzbromarone, Benzbromarone]
Total food consumption at 8 weeks [1]: not different
final body weight [1]: not different

Oc1ncnc2[nH]ncc12 [Allopurinol, allopurinol]
Total food consumption at 8 weeks [1]: not different
final body weight [1]: not different
total food intake over 3 days (fructose-fed rats): 88 ± 4 g
